From patent publication US20110052565A1
Results are given in words; binding and its absence hold for the method and conditions named. Some binding calls cover weakened binding; strength is not graded here.

B1: huVHAm309 (protein, not shown: small tags and cut ends)
VH: QVQLVESGGGLIKPGGSLRLSCAASGVNFSNEGMAWVRQAPGKGLEWVSAISSSGGSTYYADSVKGRFTISRDNSKNTVYLQMNSLRAEDTAVYYCVTAQRACANSPCPGSITSWGQETMVTVSS
B2: huVHAm416 (protein, not shown: small tags and cut ends)
VH: QVQLVESGGGLIKPGGSLRLSCAASGVSFTDDCMAWVRQAPGKGLEWVSAISSSGGSTYYADSVKGRFTISRDNSKNTVYLQMNSLRAEDTAVYYCVADHTQCRQPECESQLCSWGQGTMVTVSS
B3: huVHAm302 (protein)
VH: QVQLVESGGGLIKPGGSLRLSCAASGDTVSDESMTWVRQAPGKGLEWVSAISSSGGSTYYADSVKGRFTISRDNSKNTVYLQMNSLRAEDTAVYYCVTDNRSCQTSLCTSTTRSWGQGTMVTVSSGSEQKLSEEDLNHHHHHH
modifications: N-terminus pyroglutamine (pyroQ)
B4: huVHAm428 (protein, not shown: small tags and cut ends)
VH: QVQLVESGGGLIKPGGSLRLSCAASGFSLSDDCMGWVRQAPGKGLEWVSAISSSGGSTYYADSVKGRFTISRDNSKNTVYLQMNSLRAEDTAVYYCVTGNQACKHEPWPDEALLLGPRDNVTVSS
B5: huVHAm427 (protein, not shown: small tags and cut ends)
VH: QVQLVESGGGLIKPGGSLRLSCAASGVTLSPECMAWVRQAPGKGLEWVSAISSSGGSTYYADSVKGRFTISRDNSKNTVYLQMNSLRAEDTAVYYCVSCEGENAFWGQGTMVTASS
B6: huVHAm316 (protein, not shown: small tags and cut ends)
VH: QVQLVESGGGLIKPGGSLRLSCAASGDRFTYESMGWVRQAPGKGLEWVSAISSSGGSTYYADSVKGRFTISRDNSKNTVYLQMNSLRAEDTAVYYCVALETACTRPACAHTPRFWGQGTMVTVSS
B7: huVHAm304 (protein, not shown: small tags and cut ends)
VH: VQLVESGGGLIEPGGSLRLSCAASGFSFSDEGMAWVRQAPGKGLEWVSAISSSGGSTYYADSVKGRFTISRDNSKNTVYLQMNSLRAEDTAVYYCVRLPKQCTSPDCETEVSSWGQRTMVTVSS
B8: huVHAm315 (protein, not shown: small tags and cut ends)
VH: QVQLVESGGGLIKPGGSLRLSCAASGDMFSSEGMAWVRQAPGKGLEWVSAISSSGGSTYYADSVKGRFTISRDNSKNTVYLQMNSLRAEDTAVYYCVAAPTTCTSHNCAEPFRSWGQETMVTVSS
B9: huVHAm431 (protein, not shown: small tags and cut ends)
VH: QVQLVESGGGLIKPGGSLRLSCAASGYTVSSECMGWVRQAPGKGLEWVSAISSSGGSTYYADSVKGRFTISRDNSKNTVYLQMNSLRAEDTAVYYCVRDSKNCHDKDCTRPYCSWGQGTMVTVSS

target: protein A (UniProt P38507); experiment: SPR, protein A immobilized, VH at 0.1-2 µM

binding, binds:
B1

target: protein A (UniProt P38507); experiment: SPR, protein A immobilized, VH at 0.1-4 µM

binding, binds:
B2

target: protein A (UniProt P38507); experiment: ELISA, immobilized VH, protein A/HRP conjugate

binding, binds:
B3
B4
B5
B6
B7
B1
B8
B9
B2

target: protein A (UniProt P38507); experiment: protein A binding, second mark of the column Monomer/protein A binding

binding, binds:
B3
B4
B5
B6
B7
B1
B8
B9
B2

target: T1, porcine pancreatic α-amylase (porcine) (UniProt P00690); experiment: ELISA, immobilized porcine pancreatic α-amylase, His6-tagged VH, anti-His-IgG/HRP
T1 sequence (looked up): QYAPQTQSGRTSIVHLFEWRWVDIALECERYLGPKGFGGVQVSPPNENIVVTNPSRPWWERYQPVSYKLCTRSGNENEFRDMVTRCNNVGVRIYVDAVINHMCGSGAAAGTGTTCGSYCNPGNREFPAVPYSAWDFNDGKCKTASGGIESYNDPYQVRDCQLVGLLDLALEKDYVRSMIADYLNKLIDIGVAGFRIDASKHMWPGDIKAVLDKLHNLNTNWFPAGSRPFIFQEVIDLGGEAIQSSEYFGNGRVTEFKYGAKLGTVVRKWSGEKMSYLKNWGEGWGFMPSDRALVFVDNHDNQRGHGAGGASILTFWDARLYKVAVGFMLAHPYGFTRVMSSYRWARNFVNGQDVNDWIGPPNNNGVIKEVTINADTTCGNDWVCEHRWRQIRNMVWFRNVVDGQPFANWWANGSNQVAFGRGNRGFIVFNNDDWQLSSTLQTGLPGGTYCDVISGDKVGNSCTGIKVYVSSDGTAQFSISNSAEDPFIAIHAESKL

binding, binds:
B7

target: T1, porcine pancreatic α-amylase (porcine); experiment: phage ELISA, round 3 of heat denaturation panning; VH displayed on phage; member by Table 2, column R3

binding, binds:
B7
